Experimental data taken from paper PMC5928214, “Direct binding of CEP85 to STIL ensures robust PLK4 activation and efficient centriole assembly” (Nature Communications, 2018).
Results are given in words; binding and its absence hold for the method and conditions named. Some entries that bind do so weakly or less than the wild type. Where a sequence is shown, tags or fusion partners need not be part of it.

Biological target: T1, 3xFLAG-MAP7(17-282)-mCherry-CEP85 wild type (human) (UniProt Q6P2H3)
T1 sequence: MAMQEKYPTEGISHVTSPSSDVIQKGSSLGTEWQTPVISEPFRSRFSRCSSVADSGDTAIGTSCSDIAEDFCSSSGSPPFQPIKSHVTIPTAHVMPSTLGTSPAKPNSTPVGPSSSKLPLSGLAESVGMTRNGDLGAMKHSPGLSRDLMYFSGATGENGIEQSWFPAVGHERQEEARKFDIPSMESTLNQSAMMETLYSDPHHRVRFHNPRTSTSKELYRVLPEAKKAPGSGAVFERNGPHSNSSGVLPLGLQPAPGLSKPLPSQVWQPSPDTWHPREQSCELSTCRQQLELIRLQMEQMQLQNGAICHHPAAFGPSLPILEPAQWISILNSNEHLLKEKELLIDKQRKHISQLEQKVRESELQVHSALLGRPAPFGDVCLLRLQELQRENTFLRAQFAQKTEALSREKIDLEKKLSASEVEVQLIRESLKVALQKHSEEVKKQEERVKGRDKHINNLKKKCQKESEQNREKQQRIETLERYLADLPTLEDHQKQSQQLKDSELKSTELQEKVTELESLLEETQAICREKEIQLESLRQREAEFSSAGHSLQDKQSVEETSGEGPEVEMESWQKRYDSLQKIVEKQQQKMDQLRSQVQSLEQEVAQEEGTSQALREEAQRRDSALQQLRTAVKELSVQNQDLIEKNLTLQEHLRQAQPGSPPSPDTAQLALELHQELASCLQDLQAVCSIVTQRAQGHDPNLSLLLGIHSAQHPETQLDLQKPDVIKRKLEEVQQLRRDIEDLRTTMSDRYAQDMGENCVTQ
Test: microtubule re-routing assay (recruitment to microtubules, fluorescence microscopy); U-2 OS STIL CRISPR KO cells co-transfected with GFP-STIL and MAP7-mCherry-CEP85 (WT and mutants) for 24 h; CEP85 held on microtubules by MAP7 17-282

B1: 3xStrep-GFP-tagged STIL (protein, UniProt Q15468 1-1287)
chain: MEPIYPFARPQMNTRFPSSRMVPFHFPPSKCALWNPTPTGDFIYLHLSYYRNPKLVVTEKTIRLAYRHAKQNKKNSSCFLLGSLTADEDEEGVTLTVDRFDPGREVPECLEITPTASLPGDFLIPCKVHTQELCSREMIVHSVDDFSSALKALQCHICSKDSLDCGKLLSLRVHITSRESLDSVEFDLHWAAVTLANNFKCTPVKPIPIIPTALARNLSSNLNISQVQGTYKYGYLTMDETRKLLLLLESDPKVYSLPLVGIWLSGITHIYSPQVWACCLRYIFNSSVQERVFSESGNFIIVLYSMTHKEPEFYECFPCDGKIPDFRFQLLTSKETLHLFKNVEPPDKNPIRCELSAESQNAETEFFSKASKNFSIKRSSQKLSSGKMPIHDHDSGVEDEDFSPRPIPSPHPVSQKISKIQPSVPELSLVLDGNFIESNPLPTPLEMVNNENPPLINHLEHLKPLQPQLYDEKHSPEVEAGEPSLRGIPNQLNQDKPALLRHCKVRQPPAYKKGNPHTRNSIKPSSHNGPSHDIFEKLQTVSAGNVQNEEYPIRPSTLNSRQSSLAPQSQPHDFVFSPHNSGRPMELQIPTPPLPSYCSTNVCRCCQHHSHIQYSPLNSWQGANTVGSIQDVQSEALQKHSLFHPSGCPALYCNAFCSSSSPIALRPQGDMGSCSPHSNIEPSPVARPPSHMDLCNPQPCTVCMHTPKTESDNGMMGLSPDAYRFLTEQDRQLRLLQAQIQRLLEAQSLMPCSPKTTAVEDTVQAGRQMELVSVEAQSSPGLHMRKGVSIAVSTGASLFWNAAGEDQEPDSQMKQDDTKISSEDMNFSVDINNEVTSLPGSASSLKAVDIPSFEESNIAVEEEFNQPLSVSNSSLVVRKEPDVPVFFPSGQLAESVSMCLQTGPTGGASNNSETSEEPKIEHVMQPLLHQPSDNQKIYQDLLGQVNHLLNSSSKETEQPSTKAVIISHECTRTQNVYHTKKKTHHSRLVDKDCVLNATLKQLRSLGVKIDSPTKVKKNAHNVDHASVLACISPEAVISGLNCMSFANVGMSGLSPNGVDLSMEANAIALKYLNENQLSQLSVTRSNQNNCDPFSLLHINTDRSTVGLSLISPNNMSFATKKYMKRYGLLQSSDNSEDEEEPPDNADSKSEYLLNQNLRSIPEQLGGQKEPSKNDHEIINCSNCESVGTNADTPVLRNITNEVLQTKAKQQLTEKPAFLVKNLKPSPAVNLRTGKAEFTQHPEKENEGDITIFPESLQPSETLKQMNSMNSVGTFLDVKRLRQLPKLF
binding: binds
